Test system: conditioned mice
Assay: Fear retention and extinction tests after fear conditioning (Example 4)
Assay type: in vivo, Mice C57BL/6
Details: sertraline or krill oil alone
Description: Three-month-old mice (n=5-6/condition) were weighed and assigned to treatment groups. Mice were treated with vehicle or drugs, starting two h after fear conditioning and daily after behavioral testing until euthanasia. Mice received daily treatments with 1. PBS (phosphate buffer saline, pH 7.4) via intranasal; 2. Cotinine (10 mg/ml) dissolved in PBS via intranasal (IN Cot, 24 μl); 3. Krill oil dissolved in PBS, via intranasal (48 mg/ml, 24 μl); 4. Cotinine (10 mg/ml) plus krill oil dissolved in PBS, via intranasal (48 mg/ml, 24 μl); 5.
For intranasal delivery, mice were hand-restrained, placed in a supine position, and given two 12 μl drops of cotinine solutions, or PBS, into both nares consecutively. Mice were given an extra 12 μl treatment drop if the subject forcibly ejected or sneezed out the solution. Mice were held supine for 5-10 seconds after delivery to ensure that all fluid was inhaled.
Contextual fear conditioning was performed as described. […] Freezing behavior was defined as the absence of all movement except the one needed for breathing was assessed using the FreezeView Software (MED Associates Inc.).
Fear retention and extinction experiments were performed as described, using the same cohorts of mice and reproduced in two separate experiments. […] Freezing behavior was measured using the ANY-Maze® software (Stoelting CO, USA). […]

CN[C@H]1CC[C@@H](c2ccc(Cl)c(Cl)c2)c2ccccc21.Cl [Sertraline, (1S,4S)-4-(3,4-dichlorophenyl)-1,2,3,4-tetrahydro-N-methyl-1-naphthalenamine hydrochloride, reference compound]
day on which decrease in freezing became comparable to control PBS-treated mice: 5 days

— patent US11260050B2, “Combination of cotinine plus antioxidant for treatment-resistant depression and correction of astrocytes functional deficit induced by depression and other neuropathological” (UNIVERSIDAD SAN SEBASTIAN, priority 2017, dated 2022)
